This note sets out measurements from PubChem BioAssay AID1347423 (Functional Genomics Laboratory (NCATS/FGL), 2020).

Out of some 52,000 sequences screened, about 210 (0.4%) were called active.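 Rule for the calls: active = gene whose silencing raises cell survival under the drug, median off-target-corrected z-score across its silencing RNAs 2 or more; inactive = the rest.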 Some of the results follow.

This assay in a line: Resistance to Poly (ADP-Ribose) Polymerase inhibitor: Gene Identification via Genome-wide siRNA Screen. To be noted: mouse BRCA2 R2336H ES cells, olaparib, CellTiter-Glo viability; stronger effect = higher value. The procedure, abridged: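 Mouse BRCA2 R2336H ES cells were reverse-transfected with siRNA (20 nM final), treated at 48 h with 500 nM olaparib, and read by CellTiter-Glo after 72 h. Scores: MAD-based z per siRNA, median per gene, seed off-target correction.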
For orientation: In ATP-based viability assays light output follows the ATP content of the culture.
Regarding GGUUUAAGGUAGUUCAUGATT against Faf1, the z-score was inactive: -1.18.
To CCAGUGAUUAUCUUUAAUGTT against Gm610 belongs inactive: 1.92; to GCGAGAAAAACGAUUCAGCTT against Spnb3, inactive: -0.266; to GGGUUGUCUUCAUCUACUUTT against Crhr1, inactive: -0.222.
To “GGUAGUUUCUGGACAAAAGTT against C330027C09Rik” belongs inactive: -0.691; to GGCCCAGAAGAUGAUGAGATT against Kcne1l, inactive: -0.291; to “GCAUACCAAUCACAGUCGATT against 4933404O11Rik”, inactive: -0.187.
The figure for GCUGAAGUUACCAUAACCCTT against Cd84 is inactive: 1.08; for GCAGAGGACCAUUAAUUUATT against Ly78 it is inactive: -0.642.
Take GGACUGAGAAAAUGUAUAUTT against Nek3: the z-score was inactive: 2.42.
The figure for GGAUUAGUGCAGGAAUCAATT against Rel is inactive: 1.57.
The figure for GCGGAAUGUACCAAGACGATT against Apoh is inactive: 0.486.
Consider GGAGAUCGACGAAUACAUCTT against BC020184, for which the z-score was inactive: 0.224.
The figure for GGCCAUUGCUCAAUGGAAGTT against Gm605 is inactive: 0.761; for CCAUACAGAGGUGACAGUUTT against Olfr816 it is inactive: -0.513.
In the case of GGAAGACGAUGACCUAAACTT against C1sb, the z-score is inactive: 0.439.
To CCAUUUCAAGCUCGAUAUGTT against Pde7b belongs inactive: -0.508; to GGAGAGACAGCAGUGAACATT against Dvl2, inactive: 0.775; to GGCCAUCUUCCGAUUCUCUTT against Scn4a, inactive: 0.398.
To GGAAGAGGACUGCUUAUCCTT against BC023179 belongs inactive: -1.08; to CCGGAAACUUCCUACGUGUTT against Cbln1, inactive: 0.00316; to GCGCAUCCUAUUUUGAGAATT against Snx6, inactive: -0.776.
For the sequence CCAAGUACAUACUUCUCAUTT against Tbx4, the z-score is inactive: 0.0734.
The figure for GCUAUUGGAGGAAUGUAUCTT against Rasgrp4 is inactive: -0.103.
As to GCUGGAAUAUCAUUUCCCATT against Pdpk1, the z-score was inactive: 0.77.
To “GGAAUUCAUGACCUUUACATT against 0610042I15Rik” belongs inactive: -1.85.
Consider “CCGAGGACUACAAGGUAUATT against 1810017G16Rik”, for which the z-score was inactive: -0.434.
The figure for “CCUGUUUUUGCUACAUAGATT against 2810432O22Rik” is inactive: 0.859; for GAUGGGACAGUAAAACAAATT against Klra3 it is inactive: -0.0602; for GCACGCGCACCUACAAAAUTT against Sostdc1 it is inactive: 0.362.
The figure for GCUAGGGAUUUACCUCUUCTT against Gpr65 is inactive: 2.19; for GUUGCCAGAUUUGGAUAUUTT against Abcg5 it is inactive: -0.32; for GGACUUCAAGUACGUGCUGTT against P2ry2 it is inactive: 1.98.
The figure for GGAUCUUUACUGCUUUGUGTT against Picalm is inactive: 0.738; for GGGCCACAAGCCUUCUAUUTT against Acvr2b it is inactive: 0.855; for CGCAGAACGUGAACACCAATT against Smad3 it is inactive: -0.133.
For “GGUACAAAAUGGCUUGUUGTT against A930001M12Rik”, the z-score is inactive: 1.15.
To CAGUGAUCGUCAUAGCCAUTT against Olfr478 belongs inactive: 0.16; to GGUAACGGGACCAACACUUTT against Otop3, inactive: -0.45; to GCCUUUAUAGGAUUUCAAATT against Ppp2r5e, inactive: 0.442.
The figure for GGUCCAAGAAGACAAUGCUTT against Cga is inactive: 0.976.
To CCGGUUCACUGCUUGACCUTT against Wbp1 belongs inactive: 0.529; to GGACACCUCAUGAAGUAAUTT against Sav1, inactive: 0.356; to “GCCUUGGAUGAAAAGGUAATT against E130120L08Rik”, inactive: -1.14.
As for CCUUCAUUCUCAUGUGACCTT against Psat1, the z-score is inactive: -0.472.
The figure for GGAGAAGAUGAAGUUGAAGTT against Cpsf5 is inactive: -0.36.
The figure for CGAGUACAGUGGUUUGUCATT against Orc1l is inactive: -1; for CCAGACUUAUGACAACAAATT against Colec12 it is inactive: 1.23.
The figure for “GGAAAAGUUCUUAAAGCUGTT against 5330408M12Rik” is inactive: -1.28; for CGGGCUAUAUUACCUUGGCTT against Phf19 it is inactive: 0.513; for CCUUAGUAACAGCACUAGCTT against Lrfn2 it is inactive: -0.681.
Take GGAGUUUAUCUUCAAGCAGTT against Tcp11: the z-score was inactive: 0.86.
Take CCUAUUCUAUGAUGCACCCTT against Cyp2f2: the z-score was inactive: 0.494.
To GGUCGAGCAGAGUUGAAUCTT against Tars belongs inactive: -1.51; to GGUUCUUGAUGAAAAUCUATT against Acox1, inactive: -0.412; to “GCUCGAACAUAGCAGCAAGTT against 1700003E24Rik”, inactive: 2.51.
Take CCUUUAUCUUGGGAAUUGGTT against Pik3ca: the z-score is inactive: 1.37.
The figure for CCCUCCACUCCGUUUUUAUTT against Stim2 is inactive: -0.919; for GGUCACCUCUGCUAACAUCTT against U46068 it is inactive: 1.35.
The figure for “GCUCUUGUAUGUUCUGCUGTT against C330014O21Rik” is inactive: 0.372.
To CCUGAUAGGACCUAAUUGATT against Tom1 belongs inactive: 0.856; to GGAUGAGGUGAACUGAGGGTT against BC022651, inactive: 1.06.
With “GGUGAAAGUUACGUGUGUGTT against 6330415M09Rik”, the z-score is inactive: 0.428.
To “GCUCAUGAUCAUAUCAUGATT against 1810055G02Rik” belongs inactive: 1.14; to GGAAGAAAUACAGAAUAACTT against Npr3, inactive: 0.683; to “GGCUUUACGUGACAAAGAUTT against 4933430I17Rik”, inactive: 2.13.
To “GGAAUACAAACUGCUGUACTT against 2010005J08Rik” belongs inactive: 1.76; to “GGUAGUCAGGGCUGACUUATT against 5730449L18Rik”, inactive: -0.895.
To GGAUGACCUUACCAGACACTT against BC003281 belongs inactive: 1.88; to GGGUCUCAAACUAAAUACUTT against Rangap1, inactive: -1.44; to “GGUCAUGCUGAUCAGCGACTT against 2700050P07Rik”, inactive: 1.39.
Turning to GGCAGAAAGAUUAUGAGUUTT against Gpr171, the z-score is inactive: 2.26.
“GCGGUAAGAACGUGGAACUTT against 4732473B16Rik”: the z-score is inactive: 0.341.
To GCAAUGAGUGCUAGUUUUUTT against Cdc42 belongs inactive: 0.0951; to GCCAUCAAUGAUGUGCUCUTT against Zswim5, inactive: -2.51; to “GGUCCAAAAAUGCAAAGAATT against A430081C19Rik”, inactive: -0.162.
The figure for GGCACUUCAAAAAAAGAAUTT against Iigp2 is inactive: -0.519.
As for GGAACCAGUAUCCUGACAUTT against Prop1, the z-score is inactive: 0.288.
To GGAGAAGCUCAUCUCUCUGTT against Rfx2 belongs inactive: -1.61.
To CGAAAACUUCAUAGCUACATT against Hmg20a belongs inactive: -0.199; to GGCAACAGUACCAAAGACATT against Rps24, inactive: -3.35; to GCCCUGGCAAAAGAUACCATT against Cidec, inactive: -0.0327.
In the case of GGAUUUAGGCUACUUUUUCTT against Art4, the z-score was inactive: 0.0571.
To GGAUGCUACGUUCUGCUAGTT against Bcat2 belongs inactive: -0.76; to “GGCAGUAUUGACUCCUACCTT against 6430548M08Rik”, inactive: 2; to “CCAUCUCGAUUUGUAUAAUTT against 2010002A20Rik”, inactive: -0.557.
The figure for CCUAUAUUACACGUCAUUUTT against Trim30 is inactive: 2.04.
The figure for GCUGCUUUGGCAACUUUCATT against Lix1 is inactive: -1.2; for “GGAAUUAAAUGAACCCAGATT against 3110043J09Rik” it is inactive: 0.395; for CCUAUUACUCAAACACAGATT against Arl8 it is inactive: 1.01.
With CGUUAGCUGUUAUGAUCUATT against Cept1, the z-score was inactive: -1.84.
The figure for GGCCUCAGAUAUAGGUCUCTT against Cln6 is inactive: 0.597; for “GGUCUACAAUGUGCGCACUTT against 6720458F09Rik” it is inactive: -0.703; for GCGUGUGCUAAUGAAAAUGTT against Fxr1h it is inactive: -0.15.
Turning to GGAAGAAUCUGUUACUUUUTT against Rad1, the z-score was inactive: -2.46.
The figure for “GGAGCUGACAGAGAGAUUCTT against 5530600A18Rik” is inactive: -3.1.
The figure for GGUCUCCCUUCAGUAUGAGTT against Ela3b is active: 2.47.
To “CGAAUUCACGAACUUGAGATT against D11Ertd461e” belongs inactive: -0.0198; to GGAUUUCCUAGUAUCUAUGTT against Spnb1, inactive: 0.448; to AAUCUUGAGAGAUUUCUCCTT against Scd2, inactive: 0.369.
Consider “GGGCAUUGACCACAAAAAGTT against 1200002M06Rik”, for which the z-score was inactive: 0.349.
Regarding GCGGGAAACUACGAUAGUCTT against Gk-rs1, the z-score is inactive: -0.08.
As for GGUCAUAUGAGCGCACAGGTT against Ccnl2, the z-score is inactive: 0.304.
To CCAUUCUCCUCAGAUACUCTT against Slc25a17 belongs inactive: 0.204.
